# Test results as given in PubChem BioAssay AID2685 (National Center for Advancing Translational Sciences (NCATS), 2010).
# The list shows a part of the results. Shown are side measurements of this screen, not its main read-out; they come without a call. Compounds called inactive in the main read-out are mostly missing here. The note in brackets gives the kind of curve behind each potency; many fits are weak.
# Assay: qHTS Assay for Lipid Storage Modulators in Drosophila S3 Cells;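 for cell number change: cells counted by Cell Tracker Red CMTPX staining in the red channel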
# Conditions: BODIPY lipid droplet fluorescence, 18-24 h; for cell number change: measured here: cell count max response, cells fed with added oleic acid
# Outline: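 Laser-scanning cytometry quantifies lipid droplet accumulation (500–530 nm total intensity; droplet/cell object ratio) in oleic acid-fed (400 uM added) Drosophila S3 cells treated with a concentration series. 20 uM Triacsin C defined 100% inhibition.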
# [1] = measured here: cell number channel AC50, cells fed with added oleic acid
# [2] = measured here: lipid fluorescence (Fed channel) AC50, cells fed with added oleic acid
SMILES,cell number change [%],AC50 [1],AC50 [2]
CCCc1nc2ccccc2c(C(=O)OC(C)C(=O)NCc2ccc3c(c2)OCO3)c1CC (stereo not given),81.7,"58 nM [rising, full curve, poor fit]","29100 nM [rising, single point]"
COc1ccc(CCNC(=O)Cc2ccc([N+](=O)[O-])cc2)cc1OC,-30.6,"25900 nM [falling, single point]","32600 nM [falling, single point]"
COC(=O)Cn1c(=NC(=O)C(C)C)sc2c(C)cc(C)cc21,4.85,,"5.17 nM [rising, full curve, poor fit]"
COc1ccc2c(c1)CC/C2=N\NC(=O)c1ccccc1,15.9,,"2910 nM [rising, partial curve]"
COc1cc(C(=O)NCc2ccccn2)ccc1OCc1c(C)noc1C,176,"16400 nM [rising, partial curve]","651 nM [rising, single point]"
O=C(CNC(=O)c1ccco1)OCc1ccc(Br)cc1,31.4,,
Cn1c(C2CC(=O)N(Cc3ccccc3)C2)nc2ccccc21 (stereo not given),0.368,"731 nM [falling, full curve, poor fit]","25900 nM [falling, single point]"
COC1=CC(=O)CC(C)C12Oc1cc(OC)cc(OC)c1C2=O (stereo not given),0.161,,"25.9 nM [falling, full curve, poor fit]"
COc1cc2c(cc1OC)CN(C(=S)NC(=O)c1ccccc1)CC2,-45.3,"2590 nM [falling, full curve]","14600 nM [falling, partial curve, poor fit]"
CNC(=O)c1c(NC(=O)C2=COCCO2)sc2c1CCCC2,-11.8,,"32600 nM [falling, single point]"
CCCCCCCNC1=CC(=O)CC(c2ccco2)C1 (stereo not given),-17.4,,"20600 nM [falling, single point]"
Cc1ccccc1OCCC(=O)OCC(=O)NCCc1ccc(S(N)(=O)=O)cc1,-11.4,,"206 nM [falling, full curve, poor fit]"
CCOC(=O)[C@H]1[C@H]2COc3ccc(Br)cc3[C@@H]2N2C(=O)CN(Cc3ccccc3)C(=O)[C@@]12C,-1.62,,"9200 nM [falling, single point]"
Cc1ccc(C(=O)O/N=C/c2c(C(F)(F)F)nn(C)c2Sc2ccc(Cl)cc2)cc1,35.7,"9200 nM [rising, partial curve]","517 nM [falling, single point]"
O=C(NCCc1ccccc1)C(=S)N1CCCCC1,7.54,"6510 nM [falling, single point]","5.17 nM [falling, full curve, poor fit]"
O=C(O)C(Cc1c[nH]c2ccccc12)NS(=O)(=O)c1ccc(Cl)cc1 (stereo not given),-31.7,"4.61 nM [falling, full curve, poor fit]","13 nM [falling, full curve, poor fit]"
O=C(Nc1nccs1)c1cn(-c2ccccc2)nc1-c1ccncc1,-39.7,,
CCOC(=O)c1ccc(N2C(=O)Cc3ccccc3C2=O)cc1,-1.9,,
COc1ccc([N+](=O)[O-])cc1NC(=O)CSCc1ccc(Br)cc1,6.33,,"3660 nM [rising, partial curve, poor fit]"

SMILES,cell number change [%],AC50 [1],AC50 [2]
COc1ccc(-c2nnc(SCC(=O)Nc3ccc4c(c3)OCCO4)n2N)cc1OC,-2.07,,
O=C(C[n+]1cccc(C(=O)N/N=C/c2cccc([N+](=O)[O-])c2)c1)c1ccccc1,-6.73,,
CCCn1c(-c2ccc(F)cc2)cnc1SCC(=O)O,-79.5,"20600 nM [falling, single point]",
COc1ccccc1N1CCN(C(=O)CSc2nnc3n2C(C)(C)Cc2ccccc2-3)CC1,-16.1,,"731 nM [rising, full curve, poor fit]"
Cc1ccccc1NC(=O)COC(=O)c1ccc2nc(C)c(C)nc2c1,52.7,"32600 nM [rising, single point]",
COc1cc2c(C(=O)N3CCN(C4CCCCC4)CC3)cn(CC(C)C)c(=O)c2cc1OC,-0.84,,"731 nM [rising, single point]"
CNC(=O)c1ccc(Nc2nnc(-c3ccc(C)c(S(=O)(=O)NCC4CCCO4)c3)c3ccccc23)cc1 (stereo not given),25.5,,"20600 nM [rising, single point]"
COc1cc2c(cc1OC)C(NC(=O)C(F)(F)F)C/C2=N\O (stereo not given),18.5,,
CCN(CC(=O)Nc1ccc(C)c(F)c1)CC(=O)NC(C)(C)C,33.3,"6510 nM [rising, full curve, poor fit]","14600 nM [rising, single point]"
O=C(O)CC(Sc1n[nH]c(=S)s1)C(=O)O (stereo not given),30.5,"1640 nM [rising, full curve, poor fit]",
COC(=O)CN=Cc1c(O)n(-c2ccc(Cl)cn2)c(=O)c2ccccc12,33.6,,
CN(C)S(=O)(=O)c1ccc(SCC(=O)Nc2ccc3c(c2)OCCO3)nc1,17.7,,
CC(C(=O)N1CCCC1)N1CCN(c2ccccc2O)CC1 (stereo not given),,"92 nM [rising, partial curve, poor fit]",
CCCCNC(=O)CSc1nc2cc(OC)c(OC)cc2c(=O)n1Cc1ccc(OC)cc1,-11.4,,
CCC(C)NC(=O)CCC(=O)NNc1nc2ccccc2c2nc(C)nn12 (stereo not given),-26.6,"3660 nM [falling, full curve, poor fit]","1840 nM [rising, partial curve]"
CCOC(=O)c1ccc2nc(C)c(CC)c(Cl)c2c1,-9.23,,"164 nM [rising, full curve, poor fit]"
Cc1ccc(C2=NS(=O)(=O)N(C)C(C(=O)NCc3cccs3)=C2)cc1,-0.576,,"25.9 nM [falling, full curve, poor fit]"
COC(=O)c1c(NC(=O)CC2SC(N)=NC2=O)sc2c1CCC(C(C)(C)C)C2 (stereo not given),-86.9,"1640 nM [falling, full curve]","25900 nM [falling, partial curve]"

# Structural class, the compounds so far containing an NH in an aromatic ring
SMILES,cell number change [%],AC50 [1],AC50 [2]
O=C(O)C(Cc1c[nH]c2ccccc12)NS(=O)(=O)c1ccc(Cl)cc1 (stereo not given),-31.7,"4.61 nM [falling, full curve, poor fit]","13 nM [falling, full curve, poor fit]"
O=C(O)CC(Sc1n[nH]c(=S)s1)C(=O)O (stereo not given),30.5,"1640 nM [rising, full curve, poor fit]",
